Assay results from patent US11084795B2, “CFTR regulators and methods of use thereof” (The Regents of the University of California, priority 2015, dated 2021).
For at least one compound, name, drawing or mass did not settle the structure.

System: tear fluid secretion
Type: in vivo, mouse
Details: wild-type mice; B074 100 μM, J027 and K089 50 μM, VX-770 10 μM, cholera toxin 0.1 μg/mL, forskolin 20 μM, IBMX 250 μM

C=C[C@@]1(C)CC(=O)[C@]2(O)[C@@]3(C)[C@@H](O)CCC(C)(C)[C@@H]3[C@H](O)[C@H](OC(C)=O)[C@@]2(C)O1 [forskolin, reference compound]
tear fluid secretion after single topical dose: substantially increased basal tear secretion at 30 min, but these effects were transient and undetectable after 2 hours
